These are yes or no findings as the source states them, for the method shown. Some entries that bind do so weakly or less than the wild type. For some assays here: Sequences can lack the tags named with a protein.
T1: prohibitin from mouse white fat membrane extract (35 kDa protein) (mouse) (UniProt P67778)
T1 sequence (looked up): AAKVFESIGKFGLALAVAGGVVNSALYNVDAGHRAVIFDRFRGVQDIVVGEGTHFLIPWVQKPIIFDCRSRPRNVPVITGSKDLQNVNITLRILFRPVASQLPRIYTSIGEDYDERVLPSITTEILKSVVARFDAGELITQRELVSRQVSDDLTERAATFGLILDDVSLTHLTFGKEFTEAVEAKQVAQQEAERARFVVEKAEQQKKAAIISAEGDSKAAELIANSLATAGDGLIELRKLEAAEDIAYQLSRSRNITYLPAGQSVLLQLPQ

T2: recombinant mouse IL-11Rα (R&D Systems) (mouse) (UniProt Q64385)
T2 sequence (looked up): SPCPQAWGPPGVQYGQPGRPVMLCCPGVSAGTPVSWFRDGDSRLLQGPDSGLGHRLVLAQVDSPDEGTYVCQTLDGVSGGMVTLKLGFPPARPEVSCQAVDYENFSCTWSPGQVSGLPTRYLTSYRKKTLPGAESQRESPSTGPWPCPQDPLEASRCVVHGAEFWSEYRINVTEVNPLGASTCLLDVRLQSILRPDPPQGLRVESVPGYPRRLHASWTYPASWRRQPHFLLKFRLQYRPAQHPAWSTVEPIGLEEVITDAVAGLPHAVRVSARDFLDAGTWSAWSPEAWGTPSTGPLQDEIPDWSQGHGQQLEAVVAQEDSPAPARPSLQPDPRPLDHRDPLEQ


Legend:
[1] = molecular target: T1, prohibitin from mouse white fat membrane extract (35 kDa protein) (mouse); test: affinity chromatography of biotinylated mouse white fat membrane extract, blot for biotin
[2] = molecular target: T2, recombinant mouse IL-11Rα (R&D Systems) (mouse); test: phage binding to immobilized recombinant IL-11Rα

| Binder | binding [1] | binding [2] |
| --- | --- | --- |
| CKGGRAKDC (peptide, not shown: a dimerising Fc or GST) [recombinant fusion protein … (SEQ ID NO:4)-glutathione transferase (gst)] | binds | – |
| CGRRAGGSC (peptide, not shown: large carriers) [… (SEQ ID NO:1)-displaying phage] | – | binds |

Reference: patent US20050191294A1, “Compositions and methods of use of targeting peptides for diagnosis and therapy” (Board of Regents, The University of Texas System, priority 2003, published 2005)
